These results are taken from article PMC8017197.

The chains behind the UniProt entries cited, without tags or fusion partners. Where a name states a change or a piece, a line headed by the entry shows the natural chain unless it says otherwise.
UniProt P01375: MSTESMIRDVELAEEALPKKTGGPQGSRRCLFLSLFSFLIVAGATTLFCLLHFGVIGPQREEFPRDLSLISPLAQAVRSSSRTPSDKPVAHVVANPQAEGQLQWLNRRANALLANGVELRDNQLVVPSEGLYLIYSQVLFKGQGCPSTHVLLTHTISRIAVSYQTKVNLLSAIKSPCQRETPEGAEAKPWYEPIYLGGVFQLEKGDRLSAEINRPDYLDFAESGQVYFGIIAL
UniProt Q13137: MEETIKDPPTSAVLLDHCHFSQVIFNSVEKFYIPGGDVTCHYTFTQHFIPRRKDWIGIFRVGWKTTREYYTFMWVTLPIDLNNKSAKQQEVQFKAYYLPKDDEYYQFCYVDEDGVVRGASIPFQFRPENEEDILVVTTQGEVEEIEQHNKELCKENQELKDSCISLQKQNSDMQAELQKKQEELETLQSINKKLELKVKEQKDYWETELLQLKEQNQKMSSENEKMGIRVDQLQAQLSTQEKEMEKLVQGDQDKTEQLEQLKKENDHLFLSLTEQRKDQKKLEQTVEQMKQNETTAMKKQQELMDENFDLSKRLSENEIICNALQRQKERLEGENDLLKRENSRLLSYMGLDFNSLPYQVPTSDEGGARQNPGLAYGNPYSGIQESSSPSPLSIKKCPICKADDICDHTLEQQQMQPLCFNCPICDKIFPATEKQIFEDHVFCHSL

No constants are given. Whether binding was seen depends on the method and setting. Binding seen in cells or lysates may run through a third protein. Binding can be weak; no strength is given.

The assay deals with FLAG-tagged TNF-α (UniProt P01375). Put plainly: co-IP; TNFR complex I analysis: HeLa cells (parental, NDP52-/-, HOIP-/-; 2×10^7) stimulated with 1 μg/ml FLAG-tagged TNF-α, lysed in 1% Triton X-100 buffer, anti-FLAG M2 magnetic beads overnight at 4°C, immunoblotting; only the target purified. (Immunoblotting shows a protein as a band on a membrane.)

Turning to “endogenous NDP52 of HeLa cells (from UniProt Q13137 1-446)”, the binding entry was “binds”.
